Reference: paper PMC11360757
Where a chain is given by its changes, count along the chain named. No constants are given. Whether binding was seen depends on the method and setting. Binding seen in cells or lysates may run through a third protein. Some entries that bind do so weakly or less than the wild type. For part of these data: Tags and fused reporters may be left off the sequences shown.

Amino acid sequences for entries named in this document (tags omitted).
UniProt O43707: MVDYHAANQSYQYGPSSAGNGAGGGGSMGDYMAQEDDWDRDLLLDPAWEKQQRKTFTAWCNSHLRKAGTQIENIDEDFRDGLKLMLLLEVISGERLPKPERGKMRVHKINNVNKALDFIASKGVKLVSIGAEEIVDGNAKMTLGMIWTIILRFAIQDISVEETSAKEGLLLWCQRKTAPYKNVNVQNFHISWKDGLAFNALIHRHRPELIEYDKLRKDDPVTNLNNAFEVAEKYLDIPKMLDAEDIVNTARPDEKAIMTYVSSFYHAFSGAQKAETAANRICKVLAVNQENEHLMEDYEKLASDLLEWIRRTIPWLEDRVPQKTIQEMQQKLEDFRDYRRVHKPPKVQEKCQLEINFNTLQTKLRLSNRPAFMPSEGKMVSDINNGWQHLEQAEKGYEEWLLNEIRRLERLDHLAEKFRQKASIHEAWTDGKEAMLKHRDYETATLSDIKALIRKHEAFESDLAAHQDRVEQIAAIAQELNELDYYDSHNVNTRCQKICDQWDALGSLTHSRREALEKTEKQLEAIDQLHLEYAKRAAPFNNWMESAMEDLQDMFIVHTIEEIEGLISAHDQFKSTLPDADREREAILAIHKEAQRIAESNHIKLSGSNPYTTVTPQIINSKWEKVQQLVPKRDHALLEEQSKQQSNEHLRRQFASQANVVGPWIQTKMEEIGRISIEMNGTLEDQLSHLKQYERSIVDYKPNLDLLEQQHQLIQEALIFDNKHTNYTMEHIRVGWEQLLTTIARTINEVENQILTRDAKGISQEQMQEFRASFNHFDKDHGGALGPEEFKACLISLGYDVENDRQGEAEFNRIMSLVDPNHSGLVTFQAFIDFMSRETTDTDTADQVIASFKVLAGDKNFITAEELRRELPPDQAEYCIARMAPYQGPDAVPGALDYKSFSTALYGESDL

Tests used:
[1] = target: T1, Flag-CCT3 (UniProt P49368); experiment: co-IP; exogenous, tagged proteins co-expressed in 293T cells, lysis in 0.5% NP40, anti-Flag or anti-Myc antibody, protein A/G agarose, Western blot
T1 sequence: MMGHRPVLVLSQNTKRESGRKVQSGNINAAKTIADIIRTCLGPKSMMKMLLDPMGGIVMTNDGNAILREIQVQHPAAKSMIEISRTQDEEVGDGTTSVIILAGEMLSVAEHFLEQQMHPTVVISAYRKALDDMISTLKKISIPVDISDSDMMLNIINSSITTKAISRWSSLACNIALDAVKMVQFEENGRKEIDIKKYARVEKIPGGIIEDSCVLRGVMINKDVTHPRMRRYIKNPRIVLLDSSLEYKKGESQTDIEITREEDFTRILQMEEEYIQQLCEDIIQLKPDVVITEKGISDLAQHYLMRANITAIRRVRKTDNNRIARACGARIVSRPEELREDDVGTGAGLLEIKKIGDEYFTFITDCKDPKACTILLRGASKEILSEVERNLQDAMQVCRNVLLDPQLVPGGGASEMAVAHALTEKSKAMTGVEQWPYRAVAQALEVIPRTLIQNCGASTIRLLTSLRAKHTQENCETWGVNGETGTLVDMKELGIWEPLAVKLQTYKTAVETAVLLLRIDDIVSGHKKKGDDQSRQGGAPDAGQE

[2] = target: T2, K21R mutant CCT3 (CCT3^K21R) (UniProt P49368); experiment: as above
T2 sequence: T1 sequence with K21R

[3] = target: T3, chaperonin-containing TCP1 subunit 3 (CCT3) (human (endogenous in 97 L and LM3)) (UniProt P49368); experiment: co-IP; endogenous proteins in 97 L and LM3 lysates (0.5% NP40, 4 °C), anti-CCT3 or anti-ACTN4 antibody or isotype IgG overnight, protein A/G agarose, Western blot
T3 sequence: T1 sequence

Row | Substance | binding [1] | binding [2] | binding [3]
1 | Myc-ACTN4 (from UniProt O43707 1-911) | binds | binds | –
2 | ACTN4 (from UniProt O43707 1-911) | – | – | binds
